Some results were stated once for a whole list of compounds, not compound by compound. Some ranges recur; such a range may be that of the whole group of compounds.
These molecules were tested on bacterial adhesion to hydroxyapatite (HA) beads (assay: Adhesion of radioactively labeled bacteria to hydroxyapatite beads). Details: at maximum tested concentration (6-120 mM tested); range over the B-butyl compounds.
Assay type: cell-based
Method: 40 mg samples of hydroxyapatite (HA) beads (Ceramic hydroxyapatite type I, 80 um, Bio-Rad Laboratories, Hercules, Calif., USA)) (surface area, 0.63 cm^2/mg) were equilibrated with 3 washes of buffered KCl to which 250 μl of labeled radioactive bacteria (prepared as described above), 400 μl of the tested boronic compound and 50 μl of 700 mM sucrose (in KCl buffer solution) were added. The mixture was incubated for 60 min at 37 C with gentle rotation. At the end of the incubation period, the beads were washed 3 times with buffered KCl for removal of unbound components, especially the non-adsorbed labeled bacteria, and then rinsed with 2 ml ethanol into vials containing 10 ml scintillation fluid (Ecoscint A, National Diagnostics, Manville, N.J.). The amount of radioactively labeled bacteria adsorbed onto the HA beads was measured by scintillation counting (BETAmatic scintillation counter (Koutron®, Basel, Switzerland). Results are expressed as percent of bacterial adhesion in comparison to a control group containing no agent.
For `CCCCB1OC(c2ccccc2)C(C)N1C` (centres unmarked) [BNO5, 2-butyl-3,4-dimethyl-5-phenyl-1,3,2-oxazaborolidine], the anti-adhesive effect was 21-73%.
In the case of `CCCCB1NC(C)(C)CO1` [BNO3, 2-butyl-4,4-dimethyl-1,3,2-oxazaborolidine], the anti-adhesive effect is reported as 21-73%.
For “[(2-)-N,O,O′[2,2′-Iminobis[ethanolato]]]-2-n-butylboron [BNO7]”, the anti-adhesive effect was 21-73%.
In the case of `CCCCB1NC(C)C(c2ccccc2)O1` (centres unmarked) [BNO6, 2-butyl-4-methyl-5-phenyl-1,3,2-oxazaborolidine], the anti-adhesive effect is reported as 21-73%.

Same assay, conditions: range over the B-phenyl compounds
For “[(2-)-N,O,O′[2,2′-Iminobis[ethanolato]]]-2-phenylboron [BNO8]”, the increased adhesion was 18-62%.
With `CC1C(c2ccccc2)OB(c2ccccc2)N1C` (centres unmarked) [BNO1, 3,4-dimethyl-2,5-diphenyl-1,3,2-oxazaborolidine] the increased adhesion was 18-62%.
With `CC1(C)COB(c2ccccc2)N1` [BNO2, 4,4-dimethyl-2-phenyl-1,3,2-oxazaborolidine] the increased adhesion was 18-62%.
With `CC1NB(c2ccccc2)OC1c1ccccc1` (centres unmarked) [BNO4, 4-methyl-2,5-diphenyl-1,3,2-oxazaborolidine] the increased adhesion was 18-62%.

— US20070155698A1, “Oxazaborolidines as bacteria effectors” (priority 2003, published 2007)
